Test results reported in publication PMC10539598.
These are yes or no findings as the source states them, for the method shown. Binding seen in cells or lysates may run through a third protein. These calls come from enrichment with a bait or labelling near it, and not all partners need be listed. For some assays here: No binding means not detected with the bait. Each block holds one molecule with its values, some of them ahead of it.

Sequences of proteins named here, by UniProt entry; tags and fusion partners are left off. A change or cut given only in a name is not applied to a line headed by its entry.
UniProt Q54DE4: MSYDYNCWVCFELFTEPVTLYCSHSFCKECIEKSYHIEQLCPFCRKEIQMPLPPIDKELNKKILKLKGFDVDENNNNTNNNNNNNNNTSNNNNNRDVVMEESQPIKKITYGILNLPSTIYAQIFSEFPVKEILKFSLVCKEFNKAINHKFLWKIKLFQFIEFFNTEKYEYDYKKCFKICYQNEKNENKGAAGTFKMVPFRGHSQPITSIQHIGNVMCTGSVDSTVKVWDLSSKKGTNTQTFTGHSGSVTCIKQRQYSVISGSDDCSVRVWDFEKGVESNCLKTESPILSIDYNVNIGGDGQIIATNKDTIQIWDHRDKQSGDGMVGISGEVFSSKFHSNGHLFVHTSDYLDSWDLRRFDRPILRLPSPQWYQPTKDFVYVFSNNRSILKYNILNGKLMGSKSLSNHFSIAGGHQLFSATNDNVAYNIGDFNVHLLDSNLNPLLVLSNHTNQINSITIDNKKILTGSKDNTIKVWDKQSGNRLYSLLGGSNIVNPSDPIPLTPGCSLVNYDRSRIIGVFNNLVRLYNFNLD
UniProt P52285: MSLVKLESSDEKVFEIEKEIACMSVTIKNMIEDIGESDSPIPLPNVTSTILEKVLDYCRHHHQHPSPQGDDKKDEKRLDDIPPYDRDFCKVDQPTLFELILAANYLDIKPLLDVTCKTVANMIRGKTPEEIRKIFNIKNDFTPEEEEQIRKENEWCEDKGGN

Columns and labels:
[1] = biological target: FbxwD-FLAG3 (Dictyostelium discoideum) (UniProt Q54DE4); test: affinity purification with mass spectrometry; anti-FLAG mAb M2 magnetic beads, 1 h at 4°C, from vegetative stage cells of endogenously tagged FbxwD strains lysed in 250 mM NaCl, 50 mM Tris-HCl pH 8.0, 0.2% NP-40; eluted at high pH, nLC MS/MS; compared with untagged Ax3; FLAG3 and FLAG3UBA2 strains treated as biological replicates
[2] = biological target: FbxwD-FLAG3 (Dictyostelium discoideum) (UniProt Q54DE4); test: affinity purification with mass spectrometry; as a1 but from slug cells
[3] = biological target: FLAG3Vwa2 (Dictyostelium discoideum); test: affinity purification with mass spectrometry; anti-FLAG co-IPs with overexpressed FLAG3Vwa2, 0.2% NP-40 lysate; stage of the cells not given
[4] = biological target: Vwa2-FLAG3 (Dictyostelium discoideum); test: affinity purification with mass spectrometry; anti-FLAG co-IPs from strains expressing native levels of Vwa1-FLAG3 or Vwa2-FLAG3

binding [1]: binds
binding [2]: binds
Molecule: Skp1 (from UniProt P52285)

binding [3]: binds
binding [1]: binds
binding [4]: no binding
B1: CulE (protein, UniProt Q54XF7 1-750)
chain: MSDQITVDELWAECEQTFEDLFLNLKKGLSRKRYMEIYTKIYNYCSSANEKALIDFYIPKVKVLVAQKAVEIMSRSESYPNDALLLFFRNQWNEWKMSSNVLKNLLSPVNKIHSSDKKTTSSSANQNESVVYSDTLNSWRETAFNPLKNKLSVSLLQIIKNDRTGFSTNLQVLSDSLECYVQLGPEKNKLEIYQSCFEQQFLQETETFYKAESADFIEKNGVCEYMRHVYNRIEQETNRVNQYMPISTLEKLTKILNNVLISNYKEQFASKFLDILIEDKSSDLVMMYSLLSRVNHLTPLKNIFSDFIKSEGLKEIESNLKEAQEKPQVLISILLKIYSRFNIMIKECYGNDTDFTTAMDKSFSILVNENPASYDPKKKESNIPVVLSKFCDQILRKGPHHISDEAELEKKLTEAVCLFKYLPDKDIFMLNYQKMLSKRLVEDLSASEDAETLMINKLKNYQGFDYCTKLTRMITDMRLCKDININFQNHLNEKSLTLPYQFNFYVLTNGSWTLTNKQTATPFKPPSEMLSSITYFESFYKKSYQGRVLTFLYDFSRADVDSRQAKGKIYKLTTTAYQMAILLMFNGADKITRFLINDTIGLDETSIRLPLLALIKTGIIECSEPSFKNWNNDTEFTVNSKFSSKKMKVSCNIAVQIGETKQSEGQQTVSEQEIEKERFFKLQAAIVRIMKSKKTMTHNDLTVETTTQVSKWFTPKITAIKKAIEYLIDQEYIRRTTDDNPSARKYEYMA
